The text below walks through data of PubChem BioAssay AID2685 (National Center for Advancing Translational Sciences (NCATS), 2010).

A short description of this assay: qHTS Assay for Lipid Storage Modulators in Drosophila S3 Cells.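 For cell number change: cells counted by Cell Tracker Red CMTPX staining in the red channel.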 To be noted: BODIPY lipid droplet fluorescence, 18-24 h; for cell number change: measured here: cell count max response, cells fed with added oleic acid. Put shortly:
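Laser-scanning cytometry quantifies lipid droplet accumulation (500–530 nm total intensity; droplet/cell object ratio) in oleic acid-fed (400 uM added) Drosophila S3 cells treated with a concentration series. 20 uM Triacsin C defined 100% inhibition.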

Where [1] appears, read: measured here: cell number channel AC50, cells fed with added oleic acid.
Where [2] appears, read: measured here: lipid fluorescence (Fed channel) AC50, cells fed with added oleic acid.

The other results are listed elsewhere or left out. Shown are side measurements of this screen, not its main read-out; they come without a call. The list favours compounds with an active or inconclusive main result. The note in brackets gives the kind of curve behind each potency; many fits are weak.

For orientation: AC50 means the midpoint of the concentration-response curve, whichever way the signal moves. Low values mean activity at low concentration, high ones activity only at high concentration. `CC(C)CN(C(=O)CN1CCN(c2cccc(Cl)c2)CC1)c1c(N)n(CC(C)C)c(=O)[nH]c1=O`: the cell number change is -17.8%. Besides, the AC50 under setting [1] was 4.11 µM [falling, partial curve]. Further, the AC50 under setting [2] was 4.11 µM [falling, partial curve].

Turning to `COc1ccc(C(=O)N2CCC(n3c(C)nc4cc(F)ccc43)CC2)cc1OC`, the cell number change worked out at 8.94%. Also, the AC50 under setting [2] is 8.2 µM [falling, partial curve, poor fit].

`COC(=O)c1nn(-c2ccc(-c3ccccc3)cc2)cc1O`: the cell number change is -11.6%.

`COc1ccc(-c2cc(C(=O)Nc3cc(Br)ccc3O)no2)cc1`: the AC50 under setting [2] is 1.84 µM [falling, partial curve].

Consider `Cc1ccc(C(=O)N/C(=C/c2ccc(-c3cc(C(F)(F)F)ccc3Cl)o2)C(=O)NCc2cccnc2)cc1`, for which the cell number change was found to be 6.01%. Further, under setting [2], the AC50 was 1.3 µM [rising, full curve, poor fit].

In the case of `Cc1cc(C)c(OCCCCN2CCNCC2)c(C)c1`, the cell number change is -6.82%. Further, the AC50 under setting [2] is 29.1 µM [rising, single point].

In the case of `CC1CCCCN1Cc1c(O)ccc2c(=O)c(-c3nc4ccccc4s3)c(N)oc12` (stereo not drawn), the cell number change was 18.8%.

As to `CN1/C(=C\C(=O)Nc2cccc(Cl)c2)C(C)(C)c2ccccc21`, the cell number change was -28.7%. Under setting [2], the AC50 is 16.4 µM [falling, single point].

For `CCOc1ccc(Cc2nnc(SCC(N)=O)n2C)cc1`, the cell number change is -34.6%. In addition, the AC50 under setting [1] was 0.731 µM [falling, full curve]. For the same compound, the AC50 under setting [2] is 6.51 µM [falling, single point].

Turning to `COc1ccc(Cn2c(O)c(/C=C3/C=CC=N3)c(=O)[nH]c2=O)cc1`, the cell number change is -1.38%. Also, the AC50 under setting [2] is 7.31 µM [rising, partial curve, poor fit].

For `COc1ccc(O)c(/C=N/N2CCCCC2)c1`, under setting [1], the AC50 was 6.51 µM [falling, partial curve, poor fit].

For the compound `COC(=O)N/N=C\c1ccccc1OC/C=C/c1ccccc1`, under setting [2], the AC50 is 6.51 µM [rising, single point].

For `CC1=C(C(=O)NCCN2CCOCC2)C2(CCC(C)CC2)OC1=O` (stereo not drawn), the cell number change is -22.4%. Also, the AC50 under setting [2] was 23.1 µM [falling, partial curve].

Consider `COc1ccccc1NC(=O)Cn1c(CCC(=O)O)ccc1-c1ccc(C)cc1`, for which the cell number change stood at 6.87%. For the same compound, the AC50 under setting [2] was 0.00461 µM [falling, full curve, poor fit].

Regarding `Cc1ccc(S(=O)(=O)CC2CSc3nc4ccccc4n32)cc1` (stereo not drawn), the cell number change is -64.5%. The AC50 under setting [1] was 18.4 µM [falling, single point]. Further, under setting [2], the AC50 was 5.8 µM [falling, full curve].

`CC(=O)c1cccc(NC(=O)NCCc2ccc(Cl)cc2)c1`: the cell number change amounted to 2.48%.

As for `CC(=O)c1cccc(NC(=O)CCNS(=O)(=O)c2cccc3nonc23)c1`, the AC50 is 0.517 µM [falling, single point] under setting [1] and 0.651 µM [falling, single point] under setting [2].

For the compound `CCn1c(SCC(=O)N/N=C/c2ccc(C)s2)nc2ccccc21`, the cell number change was found to be 12.4%. For the same compound, the AC50 under setting [2] is 23.1 µM [falling, partial curve].

`Cn1c(CNC(=O)c2ccco2)nnc1SCC(=O)Nc1c(F)cc(F)cc1Br`: the cell number change is -12.9%. Moreover, the AC50 under setting [2] was 1.84 µM [rising, single point].

In the case of `O=C(CN(c1ccccc1)S(=O)(=O)c1ccccc1[N+](=O)[O-])Nc1cccnc1`, the cell number change stood at 13.7%. Moreover, the AC50 under setting [2] is 0.13 µM [rising, full curve, poor fit].

For the compound `Cc1cccc(NC(=O)c2sc(-c3ccccc3)nc2-c2ccc([N+](=O)[O-])cc2)c1`, the cell number change was 46.3%. In addition, the half-maximal activity concentration (AC50) under setting [1] is 29.1 µM [rising, single point]. The AC50 under setting [2] was 29.1 µM [falling, single point].

`C=CCNC(=O)c1ccccc1NS(=O)(=O)c1ccc(SC)cc1`: the cell number change was 124%. For the same compound, under setting [1], the AC50 was 18.4 µM [rising, partial curve]. Moreover, the AC50 under setting [2] is 18.4 µM [rising, partial curve].

With `COc1ccccc1N1CCN(C(=O)COc2ccc(C)cc2Br)CC1`, the cell number change is 17.7%.

For the compound `CC1CCN(C(=O)CSc2nnc(-c3cc4ccccc4cc3O)n2Cc2ccco2)CC1`, the cell number change is -4.26%.

Take `COC(=O)c1[nH]c2cc(OC)ccc2c1NC(=O)CN1CCN(c2cccc(C)c2)C(C)C1` (stereo not drawn): the cell number change is -37.1%. Moreover, the AC50 under setting [1] is 20.6 µM [falling, partial curve, poor fit].

Turning to `Cn1ncc(Cl)c1C(=O)NCc1ccco1`, the cell number change was -13.3%. For the same compound, the AC50 under setting [2] is 6.51 µM [falling, single point].

On to `CCC(C(=O)OCC(=O)Nc1ccc(C(N)=O)cc1)c1ccccc1` (stereo not drawn), for which the cell number change amounted to 28.6%. The AC50 under setting [1] is 0.82 µM [rising, full curve, poor fit]. Moreover, the AC50 under setting [2] is 6.51 µM [rising, partial curve, poor fit].

As to `C/C(=N\NC(=O)c1ccn(C)n1)c1ccc(NC(=O)C2CCCC2)cc1`, the cell number change was -0.959%. Further, the AC50 under setting [2] was 0.103 µM [falling, full curve, poor fit].

`CCNc1ccc(Br)cc(C(=O)/C=C/c2ccc(Cl)cc2)c1=O`: the cell number change was -75.5%. Under setting [1], the AC50 was 18.4 µM [falling, partial curve]. Also, the AC50 under setting [2] was 14.6 µM [falling, partial curve].

For `Clc1cccc(Cl)c1CSc1nnc(-c2sccc2-n2cccc2)o1`, the cell number change worked out at 8.77%. Besides, under setting [2], the half-maximal activity concentration (AC50) is 0.0116 µM [falling, full curve, poor fit].

For `Cc1csc(SCC(=O)Nc2cccc3nsnc23)n1`, the cell number change was 54%. In addition, the AC50 under setting [1] was 7.31 µM [rising, partial curve]. In addition, the AC50 under setting [2] was 10.3 µM [rising, partial curve].

Turning to `COc1cnc(-c2ccccn2)nc1Oc1ccccc1`, the cell number change is -38%. In addition, the AC50 under setting [1] is 2.91 µM [falling, partial curve]. For the same compound, the AC50 under setting [2] is 6.51 µM [falling, partial curve, poor fit].

Regarding `Cc1cc(C)cc(OCC(=O)OCC(=O)Nc2c(C)n(C)n(-c3ccccc3)c2=O)c1`, the AC50 is 0.82 µM [rising, single point] under setting [1] and 5.8 µM [falling, single point] under setting [2].

For `CCCCOc1ccc(C(NC(=O)OCC)NC(=O)OCC)cc1`, the cell number change is 66.7%. The AC50 under setting [1] was 7.31 µM [rising, partial curve]. Besides, the AC50 under setting [2] was 2.59 µM [rising, single point].

For `Cc1csc(=O)n1CC(=O)OCc1nnc(-c2ccc(Cl)cc2)o1`, the AC50 under setting [2] is 0.58 µM [falling, single point].

In the case of `CC1CCCCC12NC(=O)N(CC(=O)NCCc1ccc(S(N)(=O)=O)cc1)C2=O` (stereo not drawn), the cell number change was found to be 14.9%. For the same compound, the AC50 under setting [2] is 3.66 µM [rising, single point].
